Some of the results follow. Shown are side measurements of this screen, not its main read-out; they come without a call. Most of these compounds were active or inconclusive in the main read-out, so they are no random draw. The note in brackets gives the kind of curve behind each potency; many fits are weak.
Assay: qHTS Assay to Find Inhibitors of Chronic Active B-Cell Receptor Signaling
Conditions: ABC-DLBCL IkBa-CBG/CBR reporter, luminescence ratio (green luciferase fused to IkBa over red control in TMD8 lymphoma cells), 4 h
Outline: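 Doxycycline induced both beetle luciferases in TMD8 lymphoma cells; IKK-driven degradation limits the IkappaBalpha-fused green signal, while red luminescence normalises for cell number and nonspecific effects. Compounds tested up to 46 uM, 4 hrs.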

[1] = measured here: CBR red luminescence, cell number
[2] = measured here: IkBa-CBG green luminescence

With `COc1ccc(N/C=C/C(=O)c2ccccc2)cc1` the AC50 [1] was 11.2 µM [falling, partial curve, poor fit].
With `CC(C)CCN1CCN(CC(c2ccccc2)c2ccccc2)CC1CCO` (stereo not drawn) the AC50 [1] was 3.55 µM [falling, full curve, poor fit].
With `Cc1ccc(NC(=S)NCc2ccccc2)cc1S(=O)(=O)N1CCCCC1` the AC50 [1] was 12.6 µM [falling, partial curve] and the AC50 [2] was 35.5 µM [rising, partial curve, poor fit].
For `CC1(C(=O)OCC(=O)Nc2nnc(-c3ccccc3)o2)CC1(Cl)Cl` (stereo not drawn), the AC50 [1] was 32.6 µM [falling, single point].
With `CCCc1ccc(OCCNC(=O)c2ccco2)cc1` the AC50 [1] was 8.91 µM [rising, partial curve, poor fit].
For `COc1ccccc1N(C(=O)c1snc(C(N)=O)c1N)C(C(=O)NCCC(C)C)c1ccco1` (stereo not drawn), the AC50 [1] was 22.4 µM [falling, single point].
With `O=C(CN1CCCN(S(=O)(=O)c2ccc(Br)cc2)CC1)Nc1ccc2c(c1)OCO2` the AC50 [1] was 3.66 µM [falling, single point].
For `COc1ccccc1NC(=O)Nc1nnc(-c2ccco2)s1`, the AC50 [1] was 12.6 µM [falling, single point].
In the case of `CSc1nsc(SC)c1C(=O)OCC(F)(F)F`, the AC50 [1] is reported as 2 µM [falling, full curve, poor fit].
With `COc1cc(O)c2c(=O)c3c(OC)c(O)ccc3oc2c1` the AC50 [1] was 8.2 µM [rising, partial curve] and the AC50 [2] was 0.00411 µM [rising, full curve, poor fit].
With `O=C1CNC(=S)N1Cc1ccccc1` the AC50 [1] was 0.141 µM [rising, full curve, poor fit].
For `CC(C)CN(C(=O)CSc1nc2ccccc2c(=O)[nH]1)c1c(N)n(CC(C)C)c(=O)[nH]c1=O`, the AC50 [1] was 16.4 µM [rising, partial curve, poor fit].
With `CC1CCCN(C(=O)COC(=O)c2cc(Br)ccc2O)C1` (stereo not drawn) the AC50 [1] was 10.3 µM [falling, partial curve, poor fit].
In the case of `Cc1ccccc1C(=O)O/N=C(\N)c1ccccc1`, the AC50 [1] is reported as 15.8 µM [falling, single point].
With `Cc1cccc(NC(=O)c2cc3ccccc3o2)c1` the AC50 [1] was 2 µM [falling, full curve].
For `CCOc1ccc2nc(-c3ccc(OC)c(OC)c3)cc(C(=O)O)c2c1`, the AC50 [1] was 0.146 µM [falling, full curve].
For `CSc1nnc(C)c(=O)n1COC(=O)c1ccc(S(=O)(=O)N(C)C)cc1`, the AC50 [1] was 16.4 µM [falling, single point].
In the case of `Cc1ccc(OCCn2cnc3c(N)ncnc32)cc1`, the AC50 [1] is reported as 0.631 µM [falling, partial curve, poor fit].
For `O=C(Nc1ccc(Nc2ccccc2)cc1)c1ccc(Cl)c([N+](=O)[O-])c1`, the AC50 [1] was 15.8 µM [falling, partial curve, poor fit].
With `O=C(COc1ccccc1[N+](=O)[O-])Nc1cc(Cl)ccc1C(=O)O` the AC50 [1] was 10 µM [falling, partial curve, poor fit].
For `CCOc1ccc(Nc2cc(C)c3ccccc3n2)cc1`, the AC50 [1] was 5.01 µM [rising, partial curve].
For `CCCC(CCC)C(=O)Nc1ccc2c(c1)N(C(=O)CN1CCN(C)CC1)c1ccccc1CC2`, the AC50 [1] was 6.31 µM [falling, single point].
With `COC(=O)c1ccc2nc(Nc3nc4c(F)cc(F)cc4s3)sc2c1` the AC50 [1] was 0.0651 µM [falling, full curve] and the AC50 [2] was 1.03 µM [rising, full curve, poor fit].
In the case of `COc1ccc2c(c1)Cc1sc(NC(=O)c3ccco3)nc1-2`, the AC50 [1] is reported as 8.91 µM [falling, partial curve].
For `O=C1C2Sc3[nH]c(=O)sc3C(c3ccccc3)C2C(=O)N1c1ccccc1` (stereo not drawn), the AC50 [1] was 35.5 µM [falling, partial curve, poor fit].
With `Cc1cc(Cl)ccc1OC(C)C(=O)NN1C(=O)c2ccccc2C1=O` (stereo not drawn) the AC50 [1] was 2.82 µM [falling, partial curve].
For `O=C1N/C(=N\N=C\c2cccs2)SC1Cc1ccc(Cl)cc1` (stereo not drawn), the AC50 [1] was 2.06 µM [falling, full curve].
With `Cc1cc(NC(=O)Cc2cn3ccsc3n2)n(-c2ccccc2)n1` the AC50 [1] was 32.6 µM [falling, single point].
For `FC(F)(F)c1ccc2c(c1)[nH]c(=S)n2C1CC1`, the AC50 [1] was 12.6 µM [rising, single point].
With `Cc1cc(C)n(CC(O)Cn2c(C)c(C)c3ccccc32)n1` (stereo not drawn) the AC50 [1] was 32.6 µM [rising, partial curve, poor fit].
For `COc1ccc(CCCc2nc3ccccc3[nH]2)cc1`, the AC50 [1] was 1.12 µM [rising, partial curve, poor fit].
For `NCCN1C(=O)S/C(=C\c2ccc3c(c2)OCO3)C1=O`, the AC50 [1] was 3.55 µM [falling, full curve].
For `Cc1ccn2c(NCc3ccc4c(c3)OCO4)c(-c3ccc(O)cc3)nc2c1`, the AC50 [1] was 0.103 µM [falling, full curve, poor fit].
With `C=CCN(C(=O)c1cccc(S(=O)(=O)N2CCN(C)CC2)c1)c1nc(-c2ccccc2)cs1` the AC50 [1] was 3.66 µM [rising, partial curve, poor fit].
For `Cc1ccsc1C(=O)NCCc1c[nH]c2ccccc12`, the AC50 [1] was 7.08 µM [falling, partial curve].
For `Clc1nc(CN2CCCCC2)nc2sc3c(c12)CCCC3`, the AC50 [1] was 35.5 µM [falling, partial curve, poor fit].
For `Nc1c(C(=O)N/N=C/c2cccnc2)oc2nc(-c3ccco3)cc(-c3ccco3)c12`, the AC50 [1] was 2.24 µM [falling, full curve, poor fit] and the AC50 [2] was 3.55 µM [rising, full curve].
In the case of `Cc1nc(/C(N)=N/OC(=O)Cc2ccccc2)no1`, the AC50 [1] is reported as 8.91 µM [rising, partial curve].
For `Cc1cc(C(F)F)n2nc(C(=O)Nc3cccc(S(=O)(=O)N4CCOCC4)c3)nc2n1`, the AC50 [1] was 35.5 µM [rising, single point].
For `CCC1(C)Cc2nc3sc(C(=O)O)c(N)c3cc2CO1` (stereo not drawn), the AC50 [1] was 4.11 µM [falling, full curve, poor fit].
For `CC1=NN(c2ccccc2)C(=O)C1(C)C`, the AC50 [1] was 10 µM [falling, partial curve, poor fit].
With `c1ccc(CN(CC2=NCCN2)c2ccccc2)cc1` the AC50 [1] was 35.5 µM [falling, single point].
For `CCCSc1nc2sc3c(c2c(=O)[nH]1)CC(C)(CC)OC3` (stereo not drawn), the AC50 [1] was 35.5 µM [rising, single point].
With `Cc1ccc(C)c(NC(=O)C2C3C=CC(O3)C2C(=O)O)c1` (stereo not drawn) the AC50 [1] was 10 µM [falling, partial curve].
In the case of `O=C(NCc1ccccc1)C(Cc1ccccc1)NS(=O)(=O)c1cccc2nsnc12` (stereo not drawn), the AC50 [1] is reported as 2.91 µM [rising, full curve, poor fit].
In the case of `O=C(NCC1CCCO1)c1sc(=S)n2c1[nH]c(=O)c1ccc(C(=O)N3CCCCC3)cc12` (stereo not drawn), the AC50 [1] is reported as 35.5 µM [rising, single point].
In the case of `CN(C)c1nc(Cl)nc(N(C#N)CCOc2ccccc2)n1`, the AC50 [1] is reported as 15.8 µM [falling, single point].
With `CCn1c2ccccc2c2cc(/C=N/NC(=O)c3cc(O)cc(O)c3)ccc21` the AC50 [1] was 12.6 µM [falling, partial curve, poor fit] and the AC50 [2] was 35.5 µM [rising, partial curve, poor fit].
With `O=C(O)CSC(C(=O)Nc1ccc(Br)cc1)c1ccccc1` (stereo not drawn) the AC50 [1] was 11.2 µM [rising, partial curve].
In the case of `O=C(CCCn1c(=S)[nH]c2ccccc2c1=O)N1CCN(c2cccc(Cl)c2)CC1`, the AC50 [1] is reported as 0.447 µM [falling, full curve, poor fit].
With `CC(=O)Nc1ccc(NC(=O)CCSCCc2ccccn2)cc1` the AC50 [1] was 35.5 µM [rising, single point].
With `COC(=O)c1ccc(COc2ccccc2/C=C(\C#N)C(=O)NC(C)C)cc1` the AC50 [1] was 2.31 µM [falling, full curve, poor fit].
With `O=C(O)c1ccc(-c2ccc(-c3ccccc3)cc2)s1` the AC50 [1] was 0.447 µM [falling, full curve].
In the case of `CCOc1ccccc1/C=N/Nc1nc(C)cc(=O)[nH]1`, the AC50 [1] is reported as 10 µM [falling, single point].
With `CCn1c(=O)c2cc(C(=O)NCC(OC)OC)sc2c2ccccc21` the AC50 [1] was 10 µM [rising, partial curve, poor fit].
In the case of `CNC(=O)C(=O)Nc1nc(C23CC4CC(CC(C4)C2)C3)cs1`, the AC50 [1] is reported as 7.08 µM [rising, partial curve, poor fit].
With `O=C(Nc1cccc2ccccc12)/C(=C/c1ccc([N+](=O)[O-])cc1)NC(=O)c1ccccc1` the AC50 [1] was 31.6 µM [falling, single point].
With `O=C(CS(=O)c1ccc(C(F)(F)F)cc1[N+](=O)[O-])Oc1ccc(Cl)cc1` (stereo not drawn) the AC50 [1] was 11.6 µM [falling, partial curve, poor fit].
With `Cc1ccc(C(=O)OCC(=O)NCc2ccc(F)cc2)o1` the AC50 [1] was 0.146 µM [rising, full curve].
In the case of `CCCn1c(=O)c2c(C(F)(F)F)cc(-c3cccs3)nc2n(CCC)c1=O`, the AC50 [1] is reported as 29.1 µM [rising, single point].
With `Cc1ccc(NS(=O)(=O)c2cc(NC(=O)c3cc4c(s3)CCCC4)ccc2C)c(C)c1` the AC50 [1] was 9.2 µM [rising, partial curve, poor fit].
With `CC1CCc2sc(C(=O)OCC(=O)NC(N)=O)cc2C1` (stereo not drawn) the AC50 [1] was 5.01 µM [rising, single point].
In the case of `Cc1cc(N)n(-c2nc(-c3cccnc3)nc3ccccc23)n1`, the AC50 [1] is reported as 11.2 µM [falling, partial curve, poor fit].

Reference: PubChem BioAssay AID493014 (National Center for Advancing Translational Sciences (NCATS), 2011)
